According to PMC10570696, “DNA-translocation-independent role of INO80 remodeler in DNA damage repairs” (The Journal of Biological Chemistry, 2023):
No constants are given. Whether binding was seen depends on the method and setting. Some binding calls cover weakened binding; strength is not graded here.

Amino acid sequences for entries named in this document (tags omitted). A change or cut given only in a name is not applied to a line headed by its entry. Chains listed by the source or under a name are the forms on record and can include a tag or linker. Residues count along the entry.
UniProt P53115: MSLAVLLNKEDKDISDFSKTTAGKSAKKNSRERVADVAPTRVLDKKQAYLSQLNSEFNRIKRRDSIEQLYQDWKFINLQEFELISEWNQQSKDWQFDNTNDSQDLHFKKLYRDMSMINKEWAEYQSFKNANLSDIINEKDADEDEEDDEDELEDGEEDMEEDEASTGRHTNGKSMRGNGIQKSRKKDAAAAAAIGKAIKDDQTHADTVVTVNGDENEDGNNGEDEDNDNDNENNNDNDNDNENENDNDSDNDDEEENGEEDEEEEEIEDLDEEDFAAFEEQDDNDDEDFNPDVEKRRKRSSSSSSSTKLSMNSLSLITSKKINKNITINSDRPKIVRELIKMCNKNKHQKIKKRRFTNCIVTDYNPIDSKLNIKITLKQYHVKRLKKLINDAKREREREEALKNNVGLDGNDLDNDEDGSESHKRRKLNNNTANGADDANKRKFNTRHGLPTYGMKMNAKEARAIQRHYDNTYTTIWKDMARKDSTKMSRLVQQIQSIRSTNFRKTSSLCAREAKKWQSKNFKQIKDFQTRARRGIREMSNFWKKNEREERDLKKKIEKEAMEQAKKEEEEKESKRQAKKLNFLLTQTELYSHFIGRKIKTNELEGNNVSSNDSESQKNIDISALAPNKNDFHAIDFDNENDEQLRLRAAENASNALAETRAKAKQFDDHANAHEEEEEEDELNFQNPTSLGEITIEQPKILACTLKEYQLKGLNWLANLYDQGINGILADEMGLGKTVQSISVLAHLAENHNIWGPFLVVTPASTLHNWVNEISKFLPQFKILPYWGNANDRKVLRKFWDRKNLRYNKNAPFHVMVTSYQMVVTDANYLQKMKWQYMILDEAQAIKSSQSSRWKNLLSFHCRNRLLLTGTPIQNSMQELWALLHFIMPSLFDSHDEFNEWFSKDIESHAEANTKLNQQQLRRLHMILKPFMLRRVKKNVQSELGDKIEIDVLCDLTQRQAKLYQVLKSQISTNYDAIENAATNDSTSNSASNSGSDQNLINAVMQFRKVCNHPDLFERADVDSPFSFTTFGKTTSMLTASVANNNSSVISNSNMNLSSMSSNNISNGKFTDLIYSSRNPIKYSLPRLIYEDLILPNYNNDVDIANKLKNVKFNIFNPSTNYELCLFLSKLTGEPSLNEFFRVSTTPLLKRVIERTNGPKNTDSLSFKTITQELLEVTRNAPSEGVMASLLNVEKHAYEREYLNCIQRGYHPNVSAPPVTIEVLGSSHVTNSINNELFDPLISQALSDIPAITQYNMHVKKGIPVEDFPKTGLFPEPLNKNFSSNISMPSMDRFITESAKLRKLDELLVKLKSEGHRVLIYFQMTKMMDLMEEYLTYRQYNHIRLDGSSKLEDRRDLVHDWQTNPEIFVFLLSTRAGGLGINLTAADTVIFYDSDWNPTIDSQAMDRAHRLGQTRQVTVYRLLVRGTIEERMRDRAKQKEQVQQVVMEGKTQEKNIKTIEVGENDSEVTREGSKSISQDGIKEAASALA
Ino80ΔN, truncated form of the Ino80 subunit (residue 470 from 1490) with a C-terminal Twin-Strep tag: residues 470-1489 of P53115
UniProt P35189: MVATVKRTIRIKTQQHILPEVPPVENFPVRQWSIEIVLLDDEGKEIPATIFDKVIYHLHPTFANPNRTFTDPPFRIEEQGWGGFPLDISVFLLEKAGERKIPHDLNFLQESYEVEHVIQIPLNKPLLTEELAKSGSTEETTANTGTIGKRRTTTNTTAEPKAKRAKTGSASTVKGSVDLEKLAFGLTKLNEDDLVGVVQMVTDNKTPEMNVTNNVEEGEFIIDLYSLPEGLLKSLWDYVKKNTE

B1: Arp5 (protein, UniProt P53946 1-755)
chain: MSSRDASLTPLKAVVIDDPPLRQTPEPFDEQSAYNPQSPIAIDFGSSKLRAGFVNHATPTHIFPNALTKFRDRKLNKNFTFVGNDTLLDQAVRSQSRSPFDGPFVTNWNLTEEILDYTFHHLGVVPDNGIPNPILLTERLATVQSQRTNWYQILFETYNVPGVTFGIDSLFSFYNYNPSGNKTGLVISCGHEDTNVIPVVDGAGILTDAKRINWGGHQAVDYLNDLMALKYPYFPTKMSYLQYETMYKDYCYVSRNYDEDIEKILTLENLDTNDVVVEAPFTEVLQPQKTEEELRIQAEKRKETGKRLQEQARLKRMEKLVQKQEEFEYFSKVRDQLIDEPKKKVLSVLQNAGFDDERDFKKYLHSLEQSLKKAQMVEAEDDSHLDEMNEDKTAQKFDLLDIADEDLNEDQIKEKRKQRFLKASQDARQKAKEEKERVAKEEEEKKLKEQQWRETDLNGWIKDKRLKLNKLIKRRKEKLKLRDEMKDRKSQVSQNRMKNLASLAEDNVKQGAKRNRHQATIDNDPNDTFGANDEDWLIYTDITQNPEAFEEALEYEYKDIVELERLLLEHDPNFTEEDTLEAQYDWRNSILHLFLRGPRPHDSENIHEQHQMHLNVERIRVPEVIFQPTMGGQDQAGICELSETILLKKFGSQPGKLSQTSIDMVNNVLITGGNAKVPGLKERIVKEFTGFLPTGTNITVNMSSDPSLDAWKGMAALARNEEQYRKTVISKKEYEEYGPEYIKEHKLGNTKYFED
B2: Ies6 (protein, UniProt P32617 1-166)
chain: MSGSRGNSSNSSVSNNSNNNNNNDGGDERLLFLRSVGERNEIGFPSRFKSAHYKKPTRRHKSARQLISDENKRINALLTKANKAAESSTAARRLVPKATYFSVEAPPSIRPAKKYCDVTGLKGFYKSPTNNIRYHNAEIYQLIVKPMAPGVDQEYLKLRGANFVLK
B3: Ies2 (protein, UniProt P40154 1-320)
chain: MDSEASDIEAELSDSVSAGGEEYIDDDDYTEDIDDQIVTAKSSRRTARRSVPKGVRTSKRIRDKELSVEVDEDYDEEEDVLSPSKKRHLHTRSMDKRQVAATASEKSDIGDSKGNDGEIEDGILEEEESLEKELNRGGGKEVEKSEESYYAQNDVGQKGEEEQDGESGGYEDNEPSISKESDELVSVVNGNGNEEDDEVEATKENTTDSTRSTTTRSKMLLDLLEDGGSKKKLTDEEIQLRRAENARKRKNLSEKRLEEEKQDTINKLLKKRAGKSRSHLPNDDEKNDGSSSFVKPRRPYNSEGMTRILRRYEEDLFCTF
B4: Ies4 (protein, UniProt Q08561 1-116)
chain: MSQESSVLSESQEQLANNPKIEDTSPPSANSRDNSKPVLPWDYKNKAIEIKSFSGYKVNFTGWIRRDVREERQRGSEFTASDVKGSDDKATRKKEPADEDPEVKQLEKEGEDGLDS
B5: Nhp10 (protein, UniProt Q03435 1-203)
chain: MSVEEKKRRLEELKDQNVVLGLAIQRSRLSVKRLKLEYGVLLERLESRIELDPELNCEDPLPTLASFKQELLTKPFRKSKTKRHKVKERDPNMPKRPTNAYLLYCEMNKERIRQNGSLDVTRDLAEGWKNLNEQDRKPYYKLYSEDRERYQMEMEIYNKKISNIDADDDKEENEQKIKNNEEGSSTKVADSKGGEDGSLVSSN
B6: Ies1 (protein, UniProt P43579 1-692)
chain: MGKRVYDPIHDTFQLREDNSDETKADSPMQSVKSGSQEEASPSSIQSETETVTTKSIPVIHEIEIDDKNDDDSTQSEEENTNILLNFEPSTVPEATGASTATGPVTTNTVRRKPKESNASKYNRHLKKPDGEPFNRKDIQFSFMQELLMDKRQIFTNVLKPLYKNSIVPINIDGDKLSINVTDKEYDARTFVFNDKLTFAQLYVLTIATSIKCSKILRDKLLLDQQVAFSTCVLALLVNIGRLNTTINFYLEMTSQLRTFHSVPVLQLHANDPKLLQDTPRLKSILKNLPWGNEQLSLMETYKKVDQNDGEVDTVNKFNIINMLFSICDNSGLIDKRFLSKYVEVESKAQEQDMVDEQNEVKETEAENEKQESKAAYATTLFDILDYSKYEPKDRSNILIWLLYIHLETNLSQEEVEESVRFFNGLEDGAPAGKFILRCTERSYDTDPEDELEFGANQRIKRREFMSKMEEGRKRERTNVTEVKKPSIGGDKSEEDGEGEDDKSEETVEETRSLLTPTPILESSSPMTLNRKKVTPQLPKVTPAAPTETEEEITSAAIIDKNDLNLTPLKKYNSSATVNKVDKLISLDLNKHVSENGKTQEEFLADLKKSQVPNRLKRRDIGLIKIFNEFEDIPVASVLGIRGKKRKKFKDNLLGFETDFMKNLGASKKVLLNKIERAEIDDEEATAMFKLE
B7: Ies3 (protein, UniProt Q12345 1-250)
chain: MKFEDLLATNKQVQFAHAATQHYKSVKTPDFLEKDPHHKKFHNADGLNQQGSSTPSTATDANAASTASTHTNTTTFKRHIVAVDDISKMNYEMIKNSPGNVITNANQDEIDISTLKTRLYKDNLYAMNDNFLQAVNDQIVTLNAAEQDQETEDPDLSDDEKIDILTKIQENLLEEYQKLSQKERKWFILKELLLDANVELDLFSNRGRKASHPIAFGAVAIPTNVNANSLAFNRTKRRKINKNGLLENIL
B8: Ies5 (protein, UniProt P40060 1-125)
chain: MPSKDPESVIDKEIRKISARNDELIKQDGTLKREYTTLLRKVSSVITVLNSIDDADTGSAETELPRLISQATVEKVPELKWYNDQISLITEKLEDDEDIEVPEELMDAYTLYKETPLLYNDTHTP

Legend:
[1] = target: Ino80 subunit with a C-terminal twin-strep tag (of the INO80-C full complex) (S. cerevisiae) (UniProt P53115); experiment: co-purification (Strep-Tactin affinity, then anion exchange; SDS-PAGE); subunits co-expressed in High Five cells; lysate in 400 mM NaCl buffer loaded on a Strep-XT column by the Twin-Strep tag on Ino80, washed at 250 mM NaCl, eluted with biotin, then HQ column with a salt gradient; fractions analysed by SDS-PAGE
[2] = target: Ino80ΔN, truncated form of the Ino80 subunit (residue 470 from 1490) with a C-terminal Twin-Strep tag (S. cerevisiae) (UniProt P53115); experiment: as above

Row | Molecule | binding [1] | binding [2]
1 | Taf14 (from UniProt P35189 1-244) | binds | 
2 | B1 | binds | binds
3 | B2 | binds | binds
4 | B3 | binds | binds
5 | B4 | binds | binds
6 | B5 | binds | 
7 | B6 | binds | 
8 | B7 | binds | 
9 | B8 | binds | 
